# In patent publication US20240201191A1, “CITRULLINATED PROTEINS AS BIOMARKERS AND THERAPY TARGETS FOR CANCER” (BOARD OF REGENTS, THE UNIVERSITY OF TEXAS SYSTEM, priority 2022, published 2024):
# Some ranges recur; such a range may be that of the whole group of compounds.
# System: HCC1954 (HR-/Her2+) cells
# Experiment: Cell surface HLA-bound peptidyl-citrullinome by mass spectrometry, HCC1954
# Format: cell-based, human
# Settings: mild acid elution, LC-MS/MS, FDR=0.01; class by peptide length
row,Substance,Cell surface MHC binding citrullinated peptide identified in HCC1954 (HR−/Her2+)
1,"AVEKGVPLYR*HIADLAGNS (AVEKGVPLYRHIADLAGNS; citrulline at R10; MOD_RES (10)..(10) Citrullinated Arginine) [SEQ ID NO: 45, ENO1 peptide, R10(Cit.)]",MHC-II (from 12 to 34 as MHC-IU binding peptides)
2,"DVASVQQQR*QEQSY (DVASVQQQRQEQSY; citrulline at R9; MOD_RES (9)..(9) Citrullinated Arginine) [SEQ ID NO: 86, PLIN3 peptide, R9(Cit.)]",MHC-II (from 12 to 34 as MHC-IU binding peptides)
3,"GGGNFRGGGRGGFGRGGGR*GGFNKGQ (GGGNFRGGGRGGFGRGGGRGGFNKGQ; citrulline at R19; MOD_RES (19)..(19) Citrullinated Arginine) [SEQ ID NO: 51, GAR1 peptide, R.19(Cit.)]",MHC-II (from 12 to 34 as MHC-IU binding peptides)
4,"LGGLAVAR*DDGL (LGGLAVARDDGL; citrulline at R8; MOD_RES (8)..(8) Citrullinated Arginine) [SEQ ID NO: 124, TAGLN2 peptide, R8(Cit.)]",MHC-II (from 12 to 34 as MHC-IU binding peptides)
5,"LIR*KHTGSGILSMANAGPNTN (LIRKHTGSGILSMANAGPNTN; citrulline at R3; oxidized M13; MOD_RES (3)..(3) Citrullinated Arginine; MOD_RES (13)..(13) Oxidized Methionine) [SEQ ID NO: 92, PPIAL4E peptide, R3(Cit.); M13(Oxi.)]",MHC-II (from 12 to 34 as MHC-IU binding peptides)
6,"NPDGPLGAAAGAAGGSWGR*PGPPPA (NPDGPLGAAAGAAGGSWGRPGPPPA; citrulline at R19; MOD_RES (19)..(19) Citrullinated Arginine) [SEQ ID NO: 25, CHST2 peptide, R19(Cit.)]",MHC-II (from 12 to 34 as MHC-IU binding peptides)
7,"QIR*QFAAVLTR*RRLNTRWRRLAAEQRESLKSL (QIRQFAAVLTRRRLNTRWRRLAAEQRESLKSL; citrulline at R3 and R11; MOD_RES (3)..(3) Citrullinated Arginine; MOD_RES (11)..(11) Citrullinated Arginine) [SEQ ID NO: 61, IPO4 peptide, R3(Cit.); RII(Cit.)]",MHC-II (from 12 to 34 as MHC-IU binding peptides)
8,"R*AEASQELLAQ (RAEASQELLAQ; citrulline at R1; MOD_RES (1)..(1) Citrullinated Arginine) [SEQ ID NO: 132, UBA7 peptide, R1(Cit.)]",MHC-I (amino acid lengths putatively from 8 to 11 were considered as MHC-I binding peptides)
9,"TVHAITATQKTVDGPSGKLWR* (citrulline at R21; MOD_RES (21)..(21) Citrullinated Arginine) [SEQ ID NO: 47, GAPDH peptide, R21(Cit.)]",MHC-II (from 12 to 34 as MHC-IU binding peptides)
10,"VTRR*LGAGARAAPRR (VTRRLGAGARAAPRR; citrulline at R4; MOD_RES (4)..(4) Citrullinated Arginine) [SEQ ID NO: 26, COBLL1 peptide, R4(Cit.)]",MHC-II (from 12 to 34 as MHC-IU binding peptides)

# System: MDA-MB-468 (TNBC) cells
# Experiment: Cell surface HLA-bound peptidyl-citrullinome by mass spectrometry, MDA-MB-468
# Format: cell-based, human
# Settings: mild acid elution, LC-MS/MS, FDR=0.01; class by peptide length
row,Substance,Cell surface MHC binding citrullinated peptide identified in MDA-MB-468 (TNBC)
1,"VIGLQMGTNR*GASQAGMTGYGMPRQIL (VIGLQMGTNRGASQAGMTGYGMPRQIL; citrulline at R10; oxidized M17; MOD_RES (10)..(10) Citrullinated Arginine; MOD_RES (17)..(17) Oxidized Methionine) [SEQ ID NO: 128, TAGLN2 peptide, R10(Cit.); M17(Oxi.)]",MHC-II (from 12 to 34 as MHC-IU binding peptides)
2,"VIGLQMGTNRGASQAGMTGYGMPR*Q (VIGLQMGTNRGASQAGMTGYGMPRQ; citrulline at R24; MOD_RES (24)..(24) Citrullinated Arginine) [SEQ ID NO: 125, TAGLN2 peptide, R24(Cit.)]",MHC-II (from 12 to 34 as MHC-IU binding peptides)
3,"VKR*QFMNKSLSGPGQ (VKRQFMNKSLSGPGQ; citrulline at R3; MOD_RES (3)..(3) Citrullinated Arginine) [SEQ ID NO: 4, ARPC3 peptide, R3(Cit.)]",MHC-II (from 12 to 34 as MHC-IU binding peptides)
4,VNTNVPR*ASVPDGELSEL [SEQ ID NO: 66],MHC-II (from 12 to 34 as MHC-IU binding peptides)
5,"VNTPKKQGGLGPMNIPLVSDPKR*TIAQDYG (VNTPKKQGGLGPMNIPLVSDPKRTIAQDYG; citrulline at R23; MOD_RES (23)..(23) Citrullinated Arginine) [SEQ ID NO: 103, PRDX1 peptide, R23(Cit.)]",MHC-II (from 12 to 34 as MHC-IU binding peptides)
6,"WAALENKSKQR*TNPSPTNPFSSDLQK (WAALENKSKQRTNPSPTNPFSSDLQK; citrulline at R11; MOD_RES (11)..(11) Citrullinated Arginine) [SEQ ID NO: 73, NUMB peptide, R11(Cit.)]",MHC-II (from 12 to 34 as MHC-IU binding peptides)
7,"WAALENKSKQR*TNPSPTNPFSSDLQKT (WAALENKSKQRTNPSPTNPFSSDLQKT; citrulline at R11; MOD_RES (11)..(11) Citrullinated Arginine) [SEQ ID NO: 74, NUMB peptide, RII(Cit.)]",MHC-II (from 12 to 34 as MHC-IU binding peptides)
8,"WDR*NNPEPWNKLGPNDQYK (WDRNNPEPWNKLGPNDQYK; citrulline at R3; MOD_RES (3)..(3) Citrullinated Arginine) [SEQ ID NO: 68, NDUFA4 peptide, R3(Cit.)]",MHC-II (from 12 to 34 as MHC-IU binding peptides)
9,"WKVTR*KDGNASGTTL (WKVTRKDGNASGTTL; citrulline at R5; MOD_RES (5)..(5) Citrullinated Arginine) [SEQ ID NO: 35, EEF1A1 peptide, R5(Cit.)]",MHC-II (from 12 to 34 as MHC-IU binding peptides)
10,"WKVTR*KDGNASGTTLL (WKVTRKDGNASGTTLL; citrulline at R5; MOD_RES (5)..(5) Citrullinated Arginine) [SEQ ID NO: 34, EEF1A1 peptide, R5(Cit.)]",MHC-II (from 12 to 34 as MHC-IU binding peptides)
11,"WKVTR*KDGNASGTTLLE (WKVTRKDGNASGTTLLE; citrulline at R5; MOD_RES (5)..(5) Citrullinated Arginine) [SEQ ID NO: 36, EEF1A1 peptide, R5(Cit.)]",MHC-II (from 12 to 34 as MHC-IU binding peptides)
12,"WQGLIVPDNPPYDKGAFR* (citrulline at R18; MOD_RES (18)..(18) Citrullinated Arginine) [SEQ ID NO: 133, UBE2L3 peptide, R18(Cit.)]",MHC-II (from 12 to 34 as MHC-IU binding peptides)
13,"WSDLDELKGAR*SLET (WSDLDELKGARSLET; citrulline at R11; MOD_RES (11)..(11) Citrullinated Arginine) [SEQ ID NO: 101, PPPIR7 peptide, R11(Cit.)]",MHC-II (from 12 to 34 as MHC-IU binding peptides)
14,"WYDNEFGYSNR*VVD (WYDNEFGYSNRVVD; citrulline at R11; MOD_RES (11)..(11) Citrullinated Arginine) [SEQ ID NO: 50, GAPDH peptide, RII(Cit.)]",MHC-II (from 12 to 34 as MHC-IU binding peptides)
15,"YQVKPYHGGGAPLR*VELPT (YQVKPYHGGGAPLRVELPT; citrulline at R14; MOD_RES (14)..(14) Citrullinated Arginine) [SEQ ID NO: 1, AIMP2 peptide, R14(Cit.)]",MHC-II (from 12 to 34 as MHC-IU binding peptides)
16,"YR*QQAAYYAQTSPQGMPQHPPAPQGQ (YRQQAAYYAQTSPQGMPQHPPAPQGQ; citrulline at R2; MOD_RES (2)..(2) Citrullinated Arginine) [SEQ ID NO: 46, FUBP1 peptide, R2(Cit.)]",MHC-II (from 12 to 34 as MHC-IU binding peptides)
17,"YSIQGQHTISPLDLAKLNQVAR*QQSH (YSIQGQHTISPLDLAKLNQVARQQSH; citrulline at R22; MOD_RES (22)..(22) Citrullinated Arginine) [SEQ ID NO: 76, PCBP1 peptide, R22(Cit.)]",MHC-II (from 12 to 34 as MHC-IU binding peptides)
18,"YVLEQASSHIGNSTQATVR*DAVVGR*PSMDKKAQ (YVLEQASSHIGNSTQATVRDAVVGRPSMDKKAQ; citrulline at R19 and R25; MOD_RES (19)..(19) Citrullinated Arginine; MOD_RES (25)..(25) Citrullinated Arginine) [SEQ ID NO: 5, ATL3 peptide, R19(Cit.); R25(Cit.)]",MHC-II (from 12 to 34 as MHC-IU binding peptides)
19,"YVLEQASSHIGNSTQATVR*DAVVGRPSMDKKAQ (YVLEQASSHIGNSTQATVRDAVVGRPSMDKKAQ; citrulline at R19; MOD_RES (19)..(19) Citrullinated Arginine) [SEQ ID NO: 6, ATL3 peptide, R19(Cit.)]",MHC-II (from 12 to 34 as MHC-IU binding peptides)
20,"YVSNEELR*GSTPEAAAQVVQ (YVSNEELRGSTPEAAAQVVQ; citrulline at R8; MOD_RES (8)..(8) Citrullinated Arginine) [SEQ ID NO: 39, EEF1G peptide, R8(Cit.)]",MHC-II (from 12 to 34 as MHC-IU binding peptides)
21,"YVSNEELR*GSTPEAAAQVVQWVS (YVSNEELRGSTPEAAAQVVQWVS; citrulline at R8; MOD_RES (8)..(8) Citrullinated Arginine) [SEQ ID NO: 40, EEF1G peptide, R8(Cit.)]",MHC-II (from 12 to 34 as MHC-IU binding peptides)
